According to PubChem BioAssay AID1794844 (National Center for Advancing Translational Sciences (NCATS), 2023):
Screen size: about 2,800 compounds; fewer than 10 were called active. Another 7% or so got no clear call; they are omitted. Calls come from the whole dose curve; as a rule, active = well fitted inhibition curve with a large enough effect; inconclusive = small, poorly fitted or top-dose-only effect; inactive = no such curve, though single readings can be large or run the other way. This is one part of the list.

Protein sequences, listed by entry. Tags and fused reporters are not part of them. Lines headed by an entry give the natural chain unless they say otherwise; changes in a name come on top.
UniProt C7C422: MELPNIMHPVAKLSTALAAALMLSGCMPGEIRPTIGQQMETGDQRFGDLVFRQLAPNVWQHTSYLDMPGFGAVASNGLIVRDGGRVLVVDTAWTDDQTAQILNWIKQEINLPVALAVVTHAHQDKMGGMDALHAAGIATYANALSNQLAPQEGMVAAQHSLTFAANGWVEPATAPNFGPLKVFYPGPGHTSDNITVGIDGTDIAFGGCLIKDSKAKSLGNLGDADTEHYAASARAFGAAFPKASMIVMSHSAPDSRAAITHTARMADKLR

These compounds were tested against Metallo-beta-lactamase type 2 (Klebsiella pneumoniae) (UniProt C7C422) (assay: qHTS to identify inhibitors of the New Delhi Metallo-beta-lactamase (NDM): Nitrocefin screen against the machine-based learning selections.). Conditions: NDM-1 enzyme, nitrocefin hydrolysis, absorbance 485 nm; activity, negative = inhibition: at the top concentration.
Method in brief: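 NDM-1 (2 nM final) in 50 mM HEPES pH 7.0, 1 uM Zn2SO4, 0.01% Tween20 was preincubated with compounds for >30 min. Nitrocefin (16.7 uM final) was read at 485 nm after 15 min, and meropenem (50 uM final) at 300 nm after 30 min.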
Note: % of control where 0% means no effect.

Structure (SMILES) | activity, negative = inhibition
Cc1noc2c(-c3cccnc3NCc3cnccn3)cc(-c3ccccc3)nc12 | inactive: 7.57% [at 57.5 µM]
O=C(NCc1nc(-c2ncccn2)no1)C1CC2(CCNCC2)CN1 (stereo unspecified) | inactive: -16.6%
COc1ccc(C[C@H](NC(=O)C2=C[C@@H](NC(=O)CSCC(=O)O)[C@@H](O)[C@H](O)C2)C(N)=O)cc1 | inactive: -4.16%
CSCCCN1CCC(Oc2ccc3ncccc3c2)(C(=O)O)CC1 | inactive: -6.55%
Cc1cc2c(cc1C(=O)N1CCC(O)(C(=O)O)CC1)OCCO2 | inactive: -5.86%
CC1(C(=O)NCc2cccnc2)COCc2cnc(Nc3ccccc3)nc21 (stereo unspecified) | inactive: -5.85% [at 57.5 µM]
CS(=O)(=O)N[C@H]1C[C@H]2C(=O)Nc3ccc(-c4cccc(C(F)(F)F)c4)cc3C(=O)N2C1 | inactive: -5.61%
OC1(CNCc2nc(-c3ccncc3)n[nH]2)CNCCOC1 (stereo unspecified) | inactive: -6.58%
CC(C)N1CC[C@@H]2[C@H]1C(=O)NC[C@H](CCC(=O)N1CCC(O)CC1)N2C | inactive: -0.938% [at 57.5 µM]
O=C(NC[C@H]1Cn2ccnc2CO1)C1CCCC1 | inactive: -0.411% [at 76.7 µM]
Fc1ccccc1Nc1cnc2ccc(-c3ccccc3)nn12 | inactive: -15% [at 57.5 µM]
CC(C)C[C@@H]1N[C@H](C(=O)NCc2ccccn2)Cc2c[nH]c3cccc1c23 | inactive: -9.86% [at 57.5 µM]
CCNC(=O)c1cccnc1OC1CCN(C(=O)CC)C1 (stereo unspecified) | inactive: 0.709%
O=C(CC1CCCCC1)N1CCC2(CC1)NC(=O)N(c1ccc(F)cc1)N2 | inactive: 2.35%
CC1=C[C@@H](CNC(=O)NC2CCCCC2)[C@H](C(C)C)C[C@H]1Cc1nc2ccc(C)cc2[nH]1 | inactive: 3.34% [at 57.5 µM]
CC(=O)Nc1cccc(-c2ccc3c(n2)c(=O)ncn3Cc2ccccc2)c1 | inactive: 0.433% [at 57.5 µM]
COc1cccc(NC(=O)N[C@H]2[C@H](O)[C@@H](N3CCN(c4ccccc4)CC3)[C@@H]3OC[C@H]2O3)c1 | inactive: -5.21%
CN1C(=O)CCC2(CNC(=O)c3ccco3)CCC=C12 (stereo unspecified) | inactive: -7.33%
COc1cccc(CN2CCNc3cnc(Nc4ccccc4)cc3C2)c1 | inactive: 5.03% [at 57.5 µM]
O=C(Cc1c[nH]c2ncc(-c3cccnc3)cc12)NC1CCC1 | inactive: 23.7% [at 57.5 µM]
O=C(Cc1c[nH]c2ncc(-c3ccccc3)cc12)Nc1cccnc1 | inactive: 6.69% [at 57.5 µM]

Structure (SMILES) | activity, negative = inhibition
O=C(c1ccc(N2CC3CC(C2)[C@H]2CCCC(=O)N2C3)nc1)N1CCN(c2cccc(Cl)c2)CC1 (stereo partly specified) | inactive: 4.67%
O=C(Cc1c[nH]c2ncc(-c3cccnc3)cc12)NCCc1ccccn1 | inactive: -11.2% [at 57.5 µM]
COc1ccc(C(=O)NCc2nnc3c(-c4nc(C5CC5)no4)cccn23)c(C)c1 | inactive: -0.888%
O=C1CCC2(CCCO2)CCN1Cc1ccccc1 (stereo unspecified) | inactive: 53.7%
COCCNC(=O)[C@@H]1CCC[C@@H](NC(=O)C2CC2)CN(C)C(=O)C1 | inactive: -4.15% [at 57.5 µM]
O=C(C[C@@H]1O[C@H](CNC(=O)c2ccco2)[C@@H](O)[C@H]1O)NCc1ccc(F)cc1 | inactive: 22.7% [at 57.5 µM]
COc1cccc(F)c1C(=O)N1C[C@H](N)C[C@H]1C(=O)NC(C)C | inactive: -5.94%
O=C(NC(c1ccccc1)c1ccccc1)c1cnc2c(c1)N(C(=O)Cc1ccc(O)cc1)CCC2 | inactive: -20.4%
CS(=O)(=O)c1ccc(CNC[C@H]2Cn3ccnc3CO2)cc1 | inactive: -0.233% [at 57.5 µM]
O=C(NC1CCCCC1)N1C[C@@H]2C[C@H](C1)c1c(NS(=O)(=O)c3cccc(F)c3)ccc(=O)n1C2 | inactive: 3.92%
COCCN1CC2(CCCN(C(=O)CCc3cccc(F)c3)C2)CCC1=O (stereo unspecified) | inactive: 0.4%
COc1ccc(CN2CCN(c3nc4ccccc4o3)CC2CCO)cc1C (stereo unspecified) | inactive: -0.956%
COc1ccccc1C(=O)N1CC[C@H]2COC(=O)N2c2cc(C)ccc2C1 | inactive: -4.4% [at 57.5 µM]
COc1ccc(C[C@H](NC(=O)C2=C[C@@H](NC(=O)c3ccc(OC)cc3)[C@@H](O)[C@H](O)C2)C(N)=O)cc1 | inactive: 3.92%
CC(C)N[C@@H]1CO[C@H](CNC(=O)c2ccncc2)[C@H]1O | inactive: -3.58% [at 76.7 µM]
COCc1ccc(C(=O)N2CC[C@@H](c3ccc4c(c3)OCO4)[C@H](O)C2)o1 | inactive: -1.18%
CN1C(=O)C(CC(=O)N2CCCNCC2)(Cc2ccccc2)c2ccccc21 (stereo unspecified) | inactive: -13.9%
O=C(Cc1csc(-c2ccccc2)n1)N1CCCC(c2ccn[nH]2)C1 (stereo unspecified) | inactive: 0.175%
CC(=O)N1CCC(Oc2ccccc2-c2nc(-c3ccccc3)no2)C1 (stereo unspecified) | inactive: -7.27%
O=C(N[C@H]1[C@H](O)[C@H](O)C[C@@H]1c1cccnc1)c1ccccn1 | inactive: -2.52% [at 57.5 µM]
O=C(O)c1cc(-c2cccc(CO)c2)cc(S(=O)(=O)N2CCOCC2)c1 | inactive: -1.05%

Quoted at random: 5 entries already listed.
Structure (SMILES) | activity, negative = inhibition
O=C(Cc1c[nH]c2ncc(-c3cccnc3)cc12)NCCc1ccccn1 | inactive: -11.2% [at 57.5 µM]
CN1C(=O)C(CC(=O)N2CCCNCC2)(Cc2ccccc2)c2ccccc21 (stereo unspecified) | inactive: -13.9%
CC(C)N[C@@H]1CO[C@H](CNC(=O)c2ccncc2)[C@H]1O | inactive: -3.58% [at 76.7 µM]
O=C(c1ccc(N2CC3CC(C2)[C@H]2CCCC(=O)N2C3)nc1)N1CCN(c2cccc(Cl)c2)CC1 (stereo partly specified) | inactive: 4.67%
CS(=O)(=O)c1ccc(CNC[C@H]2Cn3ccnc3CO2)cc1 | inactive: -0.233% [at 57.5 µM]

(more compounds)

Structure (SMILES) | activity, negative = inhibition
C[C@H]1[C@@H]2[C@@H](O)C([C@H](C)C(=O)NCc3cccs3)CC[C@@]2(C)CC[C@@H]1NC(=O)c1cncnc1 (stereo partly specified) | inactive: 1.41%
O=C(O)c1ccc(CC2CCN(C(=O)c3cccc(-n4cccn4)c3)C2)cc1 (stereo unspecified) | inactive: -1.12%
CCc1c(C)nn(CC(=O)N2CCC3(CCNC(=O)CC3)CC2)c1C | inactive: -4.25%
O=C([C@@H]1C[C@H](Oc2ccccc2)CN1C(=O)c1cccs1)N1CCOCC1 | inactive: 3.58%
COCc1cc(C[C@@H]2CC[C@H](O)[C@@H](CNS(=O)(=O)c3ccccc3)O2)no1 | inactive: -0.232% [at 57.5 µM]
Cc1cc(C(=O)N[C@@H]2C[C@H](Cn3cc(CN4CCS(=O)(=O)CC4)nn3)[C@@H](O)[C@H]2O)nn1C | inactive: -17.9%
CCCn1ccc2oc(C)c(C(=O)NCc3ccc(OC)cc3)c2c1=O | inactive: 0.463%
Cc1nn(C)c(C)c1CCC(=O)N[C@@H]1CN(c2ncccn2)C[C@H]1CO | inactive: 4.86%
COc1ccc(CN2CCCC(CO)(CC3CC3)C2)c(F)c1 (stereo unspecified) | inactive: 81.8%
CC(C)CN1C(=O)COC[C@@H]1[C@H](O)c1ccc(NC(=O)C2CCCC2)cc1 | inactive: 1.07% [at 57.5 µM]
Cc1ncsc1CCC(=O)N[C@@H]1CCOC[C@H]1OCC(=O)O | inactive: -7.97%
CCn1cc(-c2ccc(OC)cc2)cc1C(=O)N1CCCCCC1 | inactive: -1.02%
C=CCC1(C(=O)O)CCCN(Cc2cnc(NCc3ccccc3)nc2)C1 (stereo unspecified) | inactive: -4.29%
CC1=C[C@@H](CNc2ccccn2)[C@H](C(C)C)C[C@H]1Cc1nnc(-c2ccc(C)cc2)o1 | inactive: 0.458% [at 57.5 µM]
CCn1nccc1C(=O)NCc1cc(C)cc2c(C)c(-c3ccccc3)[nH]c12 | inactive: -15.5%
Cn1ccnc1C(=O)N1CC(c2noc(C3CCCN3CC3CC3)n2)C1 (stereo unspecified) | inactive: 1.03%
Cc1cccc(Nc2nc(N)nc(CN3CCOCC(O)C3)n2)c1 (stereo unspecified) | inactive: -15.9%
C[C@@H](c1ccccc1)N1C(=O)[C@@H]2CN(C(=O)c3ccc(N(C)C)cc3)CCN2C1=O | inactive: 2.81% [at 57.5 µM]
CC(=O)N1CCN([C@H]2[C@@H]3OC[C@@H](O3)[C@@H](NCc3ccco3)[C@@H]2O)CC1 | inactive: -1.7% [at 57.5 µM]
